Measurements published in patent US12428650B2, “Corn event 5307” (priority 2008, dated 2025).

Test: PMI quantification by ELISA in event 5307 plant tissues
Parameters: species or system Zea mays
Details: event 5307 plants

B1: PMI: phosphomannose isomerase enzyme, selectable marker allowing the plant to utilize mannose (protein, UniProt P00946 1-391, looked up)
Mannose-6-phosphate isomerase: MQKLINSVQNYAWGSKTALTELYGMENPSSQPMAELWMGAHPKSSSRVQNAAGDIVSLRDVIESDKSTLLGEAVAKRFGELPFLFKVLCAAQPLSIQVHPNKHNSEIGFAKENAAGIPMDAAERNYKDPNHKPELVFALTPFLAMNAFREFSEIVSLLQPVAGAHPAIAHFLQQPDAERLSELFASLLNMQGEEKSRALAILKSALDSQQGEPWQTIRLISEFYPEDSGLFSPLLLNVVKLNPGEAMFLFAETPHAYLQGVALEVMANSDNVLRAGLTPKYIDIPELVANVKFEAKPANQLLTQPVKQGAELDFPIPVDDFAFSLHDLSDKETTISQQSAAILFCVEGDATLWKGSQQLQLKPGESAFIAANESPVTVKGHGRLARVYNKL
In the case of B1, the “mean PMI level in leaves” value (across all plant stages, leaves, dry wt.) is reported as 1.5-2.3 μg/g dry wt, the “mean PMI level in roots” value (across all plant stages, dry wt.) is reported as 0.9-1.5 μg/g dry wt and the “mean PMI level in roots” value (across all plant stages, fresh wt.) is reported as 0.1-0.2 μg/g fresh wt. The “mean PMI level in pollen” value (dry wt.) was 17.1-31.1 μg/g dry wt and the “mean PMI level in pollen” value (fresh wt.) was 16.7-30.6 μg/g fresh wt.
